In publication doi:10.1101/426734:
These are yes or no findings as the source states them, for the method shown. For some assays here: Binding seen in cells or lysates may run through a third protein. Some binding calls cover weakened binding; strength is not graded here.

B1: endogenous EAAT3 (mouse) (protein, UniProt P51906 1-523)
chain: MGKPTSSGCDWRRFLRNHWLLLSTVAAVVLGIVLGVVVRGHSELSNLDKFYFAFPGEILMRMLKLVILPLIVSSMITGVAALDSNVSGKIGLRAVVYYFSTTVIAVILGIVLVVSIKPGVTQKVNDINRTGKTPEVSTMDAMLDLIRNMFPENLVQACFQQYKTKREEVKPVGDPGGNATEVSVTTAMTTMSENKTKEYKIVGLYSDGINVLGLIIFCLVFGLVIGKMGEKGQILVDFFNALSDATMKIVQIIMCYMPIGILFLIAGKIIEVEDWEIFRKLGLYMATVLSGLAIHSLIVLPLLYFIVVRKNPFRFALGMAQALLTALMISSSSATLPVTFRCAEEKNQVDKRITRFVLPVGATINMDGTALYEAVAAVFIAQLNGLDLSIGQIVTISITATAASIGAAGVPQAGLVTMVIVLSAVGLPAEDVTLIIAVDWLLDRFRTMVNVLGDAFGTGIVEKLSKKELEQMDVSSEVNIVNPFALEPTTLDNEDSDTKKSYVNGGFAVDKSDTISFTQTSQF
B2: rat EAAT3 (protein, UniProt P51907 1-523)
chain: MGKPTSSGCDWRRFLRNHWLLLSTVAAVVLGIVVGVLVRGHSELSNLDKFYFAFPGEILMRMLKLVILPLIISSMITGVAALDSNVSGKIGLRAVVYYFSTTVIAVILGIVLVVSIKPGVTQKVNEINRTGKTPEVSTVDAMLDLIRNMFPENLVQACFQQYKTKREEVKPASDPGGNQTEVSVTTAMTTMSENKTKEYKIVGLYSDGINVLGLIIFCLVFGLVIGKMGEKGQILVDFFNALSDATMKIVQIIMCYMPIGILFLIAGKIIEVEDWEIFRKLGLYMATVLSGLAIHSLVVLPLIYFIVVRKNPFRFALGMAQALLTALMISSSSATLPVTFRCAEEKNHVDKRITRFVLPVGATINMDGTALYEAVAAVFIAQLNGMDLSIGQIITISITATAASIGAAGVPQAGLVTMVIVLSAVGLPAEDVTLIIAVDWLLDRFRTMVNVLGDAFGTGIVEKLSKKELEQVDVSSEVNIVNPFALEPTILDNEDSDTKKSYVNGGFSVDKSDTISFTQTSQF

Key:
[1] = biological target: endogenous EAAT3 (mouse) (mouse (endogenous in mouse hippocampus and primary neurons)) (UniProt P51906); assay: Western blot
[2] = biological target: GFP-tagged β-Galactosidase [β-galactosidase: P00722]; assay: co-IP

Binder | binding [1] | binding [2]
B1 | binds | 
B2 |  | no binding
